# Measured values: the supplement of paper PMC8728848
# Some of the results follow.
# Tests used:
# Experiment in all cases: glycan array binding signal (z-score within array); higher = stronger binding
# Conditions in all cases: glycan notation: IUPAC condensed, linker removed
# Gal4S6S(b1-4)GlcNAc = target: Gal4S6S(b1-4)GlcNAc
# Outline: (§1)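 Glycan array data were curated from 3228 arrays in the Consortium for Functional Glycomics database and kept only where the protein sequence was available. Glycan names were converted to IUPAC-condensed notation, and columns mapping to the same glycan were averaged. The binding signal is a within-array Z-score, averaged across arrays of the same protein sequence at different concentrations or buffers and across linkers. Negative Z-scores can be read as non-binding.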
# Gal6S(b1-3)GlcNAc = target: Gal6S(b1-3)GlcNAc
# Outline: as §1
# Gal6S(b1-3)GlcNAc6S = target: Gal6S(b1-3)GlcNAc6S
# Outline: as §1
# Gal6S(b1-4)Glc = target: Gal6S(b1-4)Glc
# Outline: as §1
# Gal6S(b1-4)Glc6S = target: Gal6S(b1-4)Glc6S
# Outline: as §1
# Gal6S(b1-4)GlcNAc = target: Gal6S(b1-4)GlcNAc
# Outline: as §1
# Gal6S(b1-4)GlcNAc6S = target: Gal6S(b1-4)GlcNAc6S
# Outline: as §1
# GalNAc(a1-3)Gal = target: GalNAc(a1-3)Gal
# Outline: as §1
# GalNAc(a1-3)GalNAc = target: GalNAc(a1-3)GalNAc
# Outline: as §1
# [1] = target: GalNAc(a1-3)GalNAc(a1-3)Gal(a1-4)Gal(b1-4)GlcNAc
# Outline: as §1
# [2] = target: GalNAc(a1-3)GalNAc(b1-3)Gal(a1-4)Gal(b1-4)Glc
# Outline: as §1
# GalNAc(b1-3)Gal = target: GalNAc(b1-3)Gal
# Outline: as §1
# [3] = target: GalNAc(b1-3)Gal(a1-4)Gal(b1-4)GlcNAc
# Outline: as §1
# [4] = target: GalNAc(b1-3)Gal(a1-4)Gal(b1-4)GlcNAc(b1-3)Gal(b1-4)Glc
# Outline: as §1
# [5] = target: GalNAc(b1-3)Gal(a1-6)Gal(b1-4)Glc
# Outline: as §1
# GalNAc(b1-3)GalNAc = target: GalNAc(b1-3)GalNAc
# Outline: as §1
# GalNAc(b1-4)GlcNAc = target: GalNAc(b1-4)GlcNAc
# Outline: as §1
# [6] = target: GalNAc(b1-4)GlcNAc(b1-2)Man(a1-3)[GalNAc(b1-4)GlcNAc(b1-2)Man(a1-6)]Man(b1-4)GlcNAc(b1-4)GlcNAc
# Outline: as §1
# GalNAc(b1-6)GalNAc = target: GalNAc(b1-6)GalNAc
# Outline: as §1
# Glc(a1-4)Glc = target: Glc(a1-4)Glc
# Outline: as §1
# Glc(a1-6)Glc(a1-6)Glc = target: Glc(a1-6)Glc(a1-6)Glc
# Outline: as §1
# Glc(b1-4)Glc = target: Glc(b1-4)Glc
# Outline: as §1
# Glc(b1-6)Glc = target: Glc(b1-6)Glc
# Outline: as §1
# GlcA(b1-3)Gal = target: GlcA(b1-3)Gal
# Outline: as §1
# GlcA(b1-3)GlcNAc = target: GlcA(b1-3)GlcNAc
# Outline: as §1
# GlcA(b1-6)Gal = target: GlcA(b1-6)Gal
# Outline: as §1
# [7] = target: GlcNAc(a1-3)Gal(b1-4)GlcNAc
# Outline: as §1
# [8] = target: GlcNAc(a1-4)Gal(b1-3)GlcNAc
# Outline: as §1
# [9] = target: GlcNAc(a1-4)Gal(b1-4)GalNAc
# Outline: as §1
# [10] = target: GlcNAc(a1-4)Gal(b1-4)GlcNAc
# Outline: as §1
# [11] = target: GlcNAc(a1-4)Gal(b1-4)GlcNAc(b1-3)Gal(b1-4)Glc
# Outline: as §1
# [12] = target: GlcNAc(a1-4)Gal(b1-4)GlcNAc(b1-3)Gal(b1-4)GlcNAc
# Outline: as §1
# [13] = target: GlcNAc(a1-4)Gal(b1-4)GlcNAc(b1-3)Gal(b1-4)GlcNAc(b1-3)Gal(b1-4)GlcNAc
# Outline: as §1
# [14] = target: GlcNAc(a1-4)Gal(b1-4)GlcNAc(b1-3)Gal(b1-4)[Fuc(a1-3)]GlcNAc(b1-3)Gal(b1-4)[Fuc(a1-3)]GlcNAc
# Outline: as §1
# [15] = target: GlcNAc(a1-6)Gal(b1-4)GlcNAc
# Outline: as §1
# [16] = target: GlcNAc(b1-2)Gal(b1-3)GalNAc
# Outline: as §1
# [17] = target: GlcNAc(b1-2)Man(a1-3)[GlcNAc(b1-2)Man(a1-6)]Man(b1-4)GlcNAc(b1-4)GlcNAc
# Outline: as §1
# [18] = target: GlcNAc(b1-2)Man(a1-3)[GlcNAc(b1-2)Man(a1-6)]Man(b1-4)GlcNAc(b1-4)[Fuc(a1-6)]GlcNAc
# Outline: as §1
# [19] = target: GlcNAc(b1-2)Man(a1-3)[GlcNAc(b1-4)][GlcNAc(b1-2)Man(a1-6)]Man(b1-4)GlcNAc(b1-4)GlcNAc
# Outline: as §1
# [20] = target: GlcNAc(b1-2)[GlcNAc(b1-4)]Man(a1-3)[GlcNAc(b1-2)Man(a1-6)]Man(b1-4)GlcNAc(b1-4)GlcNAc
# Outline: as §1
# [21] = target: GlcNAc(b1-2)[GlcNAc(b1-4)]Man(a1-3)[GlcNAc(b1-4)][GlcNAc(b1-2)Man(a1-6)]Man(b1-4)GlcNAc(b1-4)GlcNAc
# Outline: as §1
# [22] = target: GlcNAc(b1-2)[GlcNAc(b1-4)]Man(a1-3)[GlcNAc(b1-4)][GlcNAc(b1-2)[GlcNAc(b1-6)]Man(a1-6)]Man(b1-4)GlcNAc(b1-4)GlcNAc
# Outline: as §1
# [23] = target: GlcNAc(b1-2)[GlcNAc(b1-6)]Man(a1-6)[GlcNAc(b1-2)Man(a1-3)]Man(b1-4)GlcNAc(b1-4)GlcNAc
# Outline: as §1
# [24] = target: GlcNAc(b1-2)[GlcNAc(b1-6)]Man(a1-6)[GlcNAc(b1-2)Man(a1-3)][GlcNAc(b1-4)]Man(b1-4)GlcNAc(b1-4)GlcNAc
# Outline: as §1
# GlcNAc(b1-3)Gal = target: GlcNAc(b1-3)Gal
# Outline: as §1
# [25] = target: GlcNAc(b1-3)Gal(b1-3)GalNAc
# Outline: as §1
# GlcNAc(b1-3)Gal(b1-4)Glc = target: GlcNAc(b1-3)Gal(b1-4)Glc
# Outline: as §1
# [26] = target: GlcNAc(b1-3)Gal(b1-4)GlcNAc
# Outline: as §1
# [27] = target: GlcNAc(b1-3)Gal(b1-4)GlcNAc(b1-3)Gal(b1-4)GlcNAc
# Outline: as §1
# GlcNAc(b1-3)GalNAc = target: GlcNAc(b1-3)GalNAc
# Outline: as §1
# GlcNAc(b1-3)Man = target: GlcNAc(b1-3)Man
# Outline: as §1
# [28] = target: GlcNAc(b1-3)[GlcNAc(b1-4)][GlcNAc(b1-6)]GlcNAc
# Outline: as §1
# [29] = target: GlcNAc(b1-3)[GlcNAc(b1-6)]Gal(b1-4)GlcNAc
# Outline: as §1
# [30] = target: GlcNAc(b1-3)[GlcNAc(b1-6)]GalNAc
# Outline: as §1
# [31] = target: GlcNAc(b1-4)Gal(b1-4)GlcNAc
# Outline: as §1
# GlcNAc(b1-4)GlcNAc = target: GlcNAc(b1-4)GlcNAc
# Outline: as §1
# [32] = target: GlcNAc(b1-4)GlcNAc(b1-4)GlcNAc
# Outline: as §1
# [33] = target: GlcNAc(b1-4)GlcNAc(b1-4)GlcNAc(b1-4)GlcNAc(b1-4)GlcNAc
# Outline: as §1
# [34] = target: GlcNAc(b1-4)GlcNAc(b1-4)GlcNAc(b1-4)GlcNAc(b1-4)GlcNAc(b1-4)GlcNAc
# Outline: as §1
# [35] = target: GlcNAc(b1-4)[GlcNAc(b1-6)]GalNAc
# Outline: as §1
binder,measurement,setting,value
"pullulanase (Streptococcus pyogenes), Q8KLP1 (protein) MKKKVNQGSKRYQYLLKKWGIGFVIAATGTVMLGCIPSILTHQVAAKTIVGLARDEAQQGDGNAKSGDGFQSSSKEAKPVLDSSSANPASIAEHHLRMHFKTLPAGESLGSLGLWVWGDVDQPSKDWPNGAITMTKAKKDDYGYYLDVPLAAKHRQQVSYLINNKAGENLSKDQHIPLLTPKMNEVWIDENYHAHAYRPLKKGYLRINYHNQSGHYDNLAVWTFKDVKTPTTDWPNGLDLSHKGPYGAYVDVPLKEGANEIGFLILDKSKTGDAIKVQPKDYLFKELDNHTQVFVKDTDPKVYNNPYYIDQVSLKGAEQTTPNEIKAIFTTLDGLDEDAVKQNIKITDKAGKTVAIDELTLDKDKSVMTLKGDFKAQGAVYTVTFGEVSQVARQSWQLKDKLYAYDGELGATLAKDGSVDLALWSPSADSVKVVVYDKQDQTKVVGQADLTKSDKGVWRAHLTSDSVKGISDYTGYYYLYEITRGQEKVMVLDPYAKSLAAWNDATATDDIKTAKAAFIDPSKLGPTGLDFAKINNFKKREDAIIYEAHVRDFTSDKALEGKLTHPFGTFSAFVEQLDYLKDLGVTHVQLLPVLSYFYANELDKTRSTAYTSSDNNYNWGYDPQHYFALSGMYSANPNDPALRIAELKNLVNEIHKRGMGVIFDVVYNHTARTYLFEDLEPNYYHFMNADGTARESFGGGRLGTTHAMSRRILVDSITYLTREFKVDGFRFDMMGDHDAAAIEQAFKAAKAINPNTIMIGEGWRTYQGDEGKKEIAADQDWMKATNTVGVFSDDIRNTLKSGFPNEGTAAFITGGAKNLEGLFKTIKAQPSNFEADAPGDVVQYIAAHDNLTLHDVIAKSINKDPKVAEEEIHKRIRLGNTMILTAQGTAFIHSGQEYGRTKQLLNPDYKTKVSDDKVPNKATLIDAVAQYPYFIHDSYDSSDAVNHFDWAKATDSIAHPISNQTKAYTQGLIALRRSTDAFTKATKAEVDRDVTLITQAGQDGIQQEDLIMGYQTVASNGDRYAVFVNADNKTRKVVLPQAYRYLLGAQVLADAEQVGVTAIAKPKGVQFTKEGLTIDGLTALVLKVSSKTANPSQQKSQTDNHQTKTPDGSKDLDKSLMTRPKRAKTNQKLPKTGEAPSKGLLAAGVALLLLAISLLMKRQKD",glycan array binding signal (z-score),Gal4S6S(b1-4)GlcNAc,-0.628
same,glycan array binding signal (z-score),Gal6S(b1-3)GlcNAc,-1.16
same,glycan array binding signal (z-score),Gal6S(b1-3)GlcNAc6S,0.099
same,glycan array binding signal (z-score),Gal6S(b1-4)Glc,-0.417
same,glycan array binding signal (z-score),Gal6S(b1-4)Glc6S,0.98
same,glycan array binding signal (z-score),Gal6S(b1-4)GlcNAc,-0.745
same,glycan array binding signal (z-score),Gal6S(b1-4)GlcNAc6S,-0.411
same,glycan array binding signal (z-score),GalNAc(a1-3)Gal,-0.687
same,glycan array binding signal (z-score),GalNAc(a1-3)GalNAc,0.85
same,glycan array binding signal (z-score),[1],0.205
same,glycan array binding signal (z-score),[2],-1.28
same,glycan array binding signal (z-score),GalNAc(b1-3)Gal,1.38
same,glycan array binding signal (z-score),[3],-0.85
same,glycan array binding signal (z-score),[4],0.26
same,glycan array binding signal (z-score),[5],-1.16
same,glycan array binding signal (z-score),GalNAc(b1-3)GalNAc,-0.967
same,glycan array binding signal (z-score),GalNAc(b1-4)GlcNAc,-0.76
same,glycan array binding signal (z-score),[6],1.1
same,glycan array binding signal (z-score),GalNAc(b1-6)GalNAc,-0.145
same,glycan array binding signal (z-score),Glc(a1-4)Glc,-0.166
same,glycan array binding signal (z-score),Glc(a1-6)Glc(a1-6)Glc,2.49
same,glycan array binding signal (z-score),Glc(b1-4)Glc,-0.054
same,glycan array binding signal (z-score),Glc(b1-6)Glc,1.29
same,glycan array binding signal (z-score),GlcA(b1-3)Gal,-0.708
same,glycan array binding signal (z-score),GlcA(b1-3)GlcNAc,2.61
same,glycan array binding signal (z-score),GlcA(b1-6)Gal,1.32
same,glycan array binding signal (z-score),[7],-0.526
same,glycan array binding signal (z-score),[8],0.217
same,glycan array binding signal (z-score),[9],-1.56
same,glycan array binding signal (z-score),[10],-0.735
same,glycan array binding signal (z-score),[11],0.345
same,glycan array binding signal (z-score),[12],-0.11
same,glycan array binding signal (z-score),[13],0.594
same,glycan array binding signal (z-score),[14],2.15
same,glycan array binding signal (z-score),[15],1.72
same,glycan array binding signal (z-score),[16],-1.26
same,glycan array binding signal (z-score),[17],-0.014
same,glycan array binding signal (z-score),[18],1.71
same,glycan array binding signal (z-score),[19],0.33
same,glycan array binding signal (z-score),[20],-0.784
same,glycan array binding signal (z-score),[21],-0.733
same,glycan array binding signal (z-score),[22],1.59
same,glycan array binding signal (z-score),[23],-0.795
same,glycan array binding signal (z-score),[24],-0.549
same,glycan array binding signal (z-score),GlcNAc(b1-3)Gal,1.89
same,glycan array binding signal (z-score),[25],-0.328
same,glycan array binding signal (z-score),GlcNAc(b1-3)Gal(b1-4)Glc,-0.26
same,glycan array binding signal (z-score),[26],-0.767
same,glycan array binding signal (z-score),[27],-1.14
same,glycan array binding signal (z-score),GlcNAc(b1-3)GalNAc,0.154
same,glycan array binding signal (z-score),GlcNAc(b1-3)Man,0.318
same,glycan array binding signal (z-score),[28],-0.834
same,glycan array binding signal (z-score),[29],-0.147
same,glycan array binding signal (z-score),[30],0.545
same,glycan array binding signal (z-score),[31],0.614
same,glycan array binding signal (z-score),GlcNAc(b1-4)GlcNAc,0.664
same,glycan array binding signal (z-score),[32],-1.18
same,glycan array binding signal (z-score),[33],0.317
same,glycan array binding signal (z-score),[34],-0.949
same,glycan array binding signal (z-score),[35],0.817
